Measured data: PubChem BioAssay AID1259261 (Sanger Institute, 2017)
In all, the deposit lists 794 reagents; this is a random part of them. Of all reagents, 10 (1.3%) are marked active. 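Calls reflect knock-down alone without drug; synergy scores with BYL719, cetuximab or trametinib do not affect calls.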 A number with no mark means an inactive call. No viability above 1 is reported: the scale is capped. Further read-outs or replicates are left out here. Not given: the amount of reagent, the time to read-out.

Screen: 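Find kinase silencing that cuts viability alone or with anchor drugs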 (primary screen)
Cells: HCC2998 human colorectal cancer cells
Knock-down reagent: siRNA pool against human genes
Treatment: anchor drugs BYL719 1 µM, cetuximab 5 µg/ml or trametinib 10 nM, each compared with DMSO vehicle
Read-out: 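Cell viability relative to non-targeting siRNA, averaged over replicates, with robust z-score for siRNA alone and synergy scores with each anchor drug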
Scale: viability z-score, knock-down alone: higher = more viable cells than controls; viability fraction, knock-down alone: higher = more viable cells
Call rule: 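a knock-down is called essential if its robust z-score without drug is under -3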
Calls: active = essential; inactive = no change

GUCY2F (guanylate cyclase 2F, retinal) — viability z-score, knock-down alone: -0.398; viability fraction, knock-down alone: 0.799
WNK3 (WNK lysine deficient protein kinase 3) — viability z-score, knock-down alone: 1.13; viability fraction, knock-down alone: 0.991
PRKCH (protein kinase C eta) — viability z-score, knock-down alone: -0.948; viability fraction, knock-down alone: 0.73
ELF3 (E74 like ETS transcription factor 3) — viability z-score, knock-down alone: -1.4; viability fraction, knock-down alone: 0.673
CTNNB1 (catenin beta 1) — viability z-score, knock-down alone: -2.27; viability fraction, knock-down alone: 0.564
ROS1 (ROS proto-oncogene 1, receptor tyrosine kinase) — viability z-score, knock-down alone: -0.083; viability fraction, knock-down alone: 0.838
CSF1R (colony stimulating factor 1 receptor) — viability z-score, knock-down alone: -0.215; viability fraction, knock-down alone: 0.822
PRKD1 (protein kinase D1) — viability z-score, knock-down alone: 1.21; viability fraction, knock-down alone: 1
EFNA3 (ephrin A3) — viability z-score, knock-down alone: -0.0589; viability fraction, knock-down alone: 0.841
PRKAR2B — viability z-score, knock-down alone: -2.98; viability fraction, knock-down alone: 0.475
YES1 (YES proto-oncogene 1, Src family tyrosine kinase) — viability z-score, knock-down alone: 1.21; viability fraction, knock-down alone: 1
CDK7 (cyclin dependent kinase 7) — viability z-score, knock-down alone: 0.702; viability fraction, knock-down alone: 0.937
STK32C (serine/threonine kinase 32C) — viability z-score, knock-down alone: 1.17; viability fraction, knock-down alone: 0.996
MAPK8 (mitogen-activated protein kinase 8) — viability z-score, knock-down alone: -0.0385; viability fraction, knock-down alone: 0.844
TSKS (testis specific serine kinase substrate) — viability z-score, knock-down alone: 0.139; viability fraction, knock-down alone: 0.866

The list goes on; the last 4 above are carried over.
CDK7 (cyclin dependent kinase 7) — viability z-score, knock-down alone: 0.702; viability fraction, knock-down alone: 0.937
STK32C (serine/threonine kinase 32C) — viability z-score, knock-down alone: 1.17; viability fraction, knock-down alone: 0.996
MAPK8 (mitogen-activated protein kinase 8) — viability z-score, knock-down alone: -0.0385; viability fraction, knock-down alone: 0.844
TSKS (testis specific serine kinase substrate) — viability z-score, knock-down alone: 0.139; viability fraction, knock-down alone: 0.866
DCK (deoxycytidine kinase) — viability z-score, knock-down alone: -4.23 (active); viability fraction, knock-down alone: 0.318
TGFBR2 (transforming growth factor beta receptor 2) — viability z-score, knock-down alone: 0.393; viability fraction, knock-down alone: 0.898
NTN4 (netrin 4) — viability z-score, knock-down alone: -0.599; viability fraction, knock-down alone: 0.774
CKB (creatine kinase B) — viability z-score, knock-down alone: 0.356; viability fraction, knock-down alone: 0.894
EPHB2 (EPH receptor B2) — viability z-score, knock-down alone: 0.472; viability fraction, knock-down alone: 0.908
LMTK3 (lemur tail kinase 3) — viability z-score, knock-down alone: 0.442; viability fraction, knock-down alone: 0.904
MAP3K19 (mitogen-activated protein kinase kinase kinase 19) — viability z-score, knock-down alone: -1.34; viability fraction, knock-down alone: 0.681
PASK (PAS domain containing serine/threonine kinase) — viability z-score, knock-down alone: -0.24; viability fraction, knock-down alone: 0.819
PRKCA (protein kinase C alpha) — viability z-score, knock-down alone: 0.406; viability fraction, knock-down alone: 0.9
TTBK2 (tau tubulin kinase 2) — viability z-score, knock-down alone: -1.09; viability fraction, knock-down alone: 0.713
NTRK3 (neurotrophic receptor tyrosine kinase 3) — viability z-score, knock-down alone: 1.13; viability fraction, knock-down alone: 0.991
NEK5 (NIMA related kinase 5) — viability z-score, knock-down alone: 1.21; viability fraction, knock-down alone: 1
ALDH18A1 (aldehyde dehydrogenase 18 family member A1) — viability z-score, knock-down alone: 0.885; viability fraction, knock-down alone: 0.96
CAMK1G (calcium/calmodulin dependent protein kinase IG) — viability z-score, knock-down alone: 1.19; viability fraction, knock-down alone: 0.998
PGK1 (phosphoglycerate kinase 1) — viability z-score, knock-down alone: 0.107; viability fraction, knock-down alone: 0.862
ADPGK (ADP dependent glucokinase) — viability z-score, knock-down alone: -0.132; viability fraction, knock-down alone: 0.832
ADGRL2 (adhesion G protein-coupled receptor L2) — viability z-score, knock-down alone: -2.07; viability fraction, knock-down alone: 0.59
HIPK3 (homeodomain interacting protein kinase 3) — viability z-score, knock-down alone: -0.333; viability fraction, knock-down alone: 0.807
PIK3R4 (phosphoinositide-3-kinase regulatory subunit 4) — viability z-score, knock-down alone: -0.264; viability fraction, knock-down alone: 0.816
AK3 (adenylate kinase 3) — viability z-score, knock-down alone: 0.906; viability fraction, knock-down alone: 0.962
PTK7 (protein tyrosine kinase 7 (inactive)) — viability z-score, knock-down alone: -1.27; viability fraction, knock-down alone: 0.69
